Measurements from “University of Dundee, Small-Polar-MMV Screening Library” (2021), ChEMBL document CHEMBL3988442.

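Cell assay of Leishmania donovani living inside macrophages; the read-out is not stated. Tested at 30 µM. The record gives no direction; compounds that gave an IC50 in retests scored well above the rest, so higher reads as stronger inhibition. Of about 69,000 compounds tested this way, about 1,000 (1.5%) reached 50% or more in at least one test.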

Each number is a percent effect as filed. How 0% and 100% were set is not recorded. Most values in the screen are low, and negative values occur. This is an unselected part of the compounds tested. Two or more numbers in one place are separate tests of the same structure; such repeats can differ widely.

compound,percent effect
CCOC(=O)c1sc2ccsc2c1CNC(=O)CCOC,-1.681
COc1cc(NC(=O)C2CC(=O)N(c3cccc(F)c3)C2)ncn1 (stereo not given),4.702 & 1.591
CCc1noc(CN(C)C(=O)c2ccnc(OC3CCC3)c2)n1,12.89
O[C@@H]1CN(Cc2cnccn2)C[C@H]1Oc1ccccc1,-6.703
Cc1cccc(-c2noc(CN3CCc4nn(C)c(=O)cc4C3)n2)c1,-9.564
C[C@H](NC(=O)OC(C)(C)C)c1nnc(S(=O)(=O)Cc2cccc(F)c2)o1,-49.88
Cl.O=C(NCCO)C1(Cc2ccccc2-c2cccnc2)CCOCC1,11.67
CNC(=O)C1(C)CN(c2nc(C)cc(C)n2)CCO1 (stereo not given),5.677
CN1C[C@@H](C(=O)NC2CCCC2)[C@@]2(COc3ccc(F)cc3C2=O)C1,25.69
Cc1cc(F)ccc1OC1(C(=O)O)CCN(Cc2cccnc2N)CC1,1.653
COCCCNC(=O)CCn1ncc2c(Cl)cccc21,48.8
Cc1ccc(NC(=O)c2ccc(N3CCCCC3)nn2)c(Cl)c1,-13.23
CCCc1nc(CN2CCN(CC(O)c3ccccc3)CC2)no1 (stereo not given),3.365
O=c1[nH]c2c(c(=O)n1C1CCCCC1)CCC2Nc1ccccc1Cl (stereo not given),19.4
COCc1cc(N(C)Cc2c(C)nn(C)c2C)n2nccc2n1,-33.31
Cc1cc2[nH]c(=O)c(=O)[nH]c2cc1S(=O)(=O)NC1CCC(C)CC1 (stereo not given),6.826
CC(C)CCN(C(=O)c1ccc(-n2ncc(C#N)c2N)cc1)C1CC1,6.158
CN(C)Cc1nnc(C2CCN(c3nccc(N)n3)CC2)n1C1CC1,22.33
CC(C)n1ncc2c1NC(=O)CC21C(=O)Nc2c(Cl)cc(Br)cc21 (stereo not given),2.73
COCCc1noc(CNC2CCc3nc(C(C)C)nn3C2)n1 (stereo not given),-7.136
CCOC(=O)NC(CNC(=O)c1cccnc1SC)CC(C)C (stereo not given),-21.15
Cc1ncsc1CNc1cc(N2CCCC2CO)ncn1 (stereo not given),-7.795
CSCCc1c(-c2ccccc2)ncn1CC(C)(C)N1CCCC1,-1.129
CN(Cc1ccccc1)S(=O)(=O)N1C[C@H](C2CC2)[C@@H](N)C1,11.31
CCc1noc(C(C)N2CCN(Cc3noc(C4CC4)n3)CC2)n1 (stereo not given),12.92
O=C(CCc1ccc(-n2cnnn2)cc1)Nc1ccncc1,-29.42
COc1ccccc1C(=O)N1CCC(O)(c2cccc(C)c2C)CC1,-7.203
CN(C)C(=O)COCC1CN(Cc2cccs2)Cc2ncn(C)c21.O=C(O)C(F)(F)F.O=C(O)C(F)(F)F (stereo not given),-8.893
O=C(C[S+]([O-])c1ccc(F)c(F)c1)NCc1cc(F)cc(F)c1 (stereo not given),-31.44
O=C(C1SCCc2sccc21)N1CC(O)C1 (stereo not given),11.65
COc1nc2c(cc1C(=O)N1C[C@@H](N)C[C@H]1C(=O)NC(C)C)CCC2,-34.42
CCC(=O)NC1CCCN(C(=O)c2ccc(OCC3CC3)nc2)C1 (stereo not given),-45
CC(CNC(=O)c1cc(Cl)ccc1I)N1CCCC1 (stereo not given),1.178
Cc1cccc(-c2nccnc2C2CCCN(C)C2)c1C (stereo not given),-0.9373
CCOc1ccccc1C(=O)Oc1cc(=O)n2cccc(C)c2n1,-11.99 & 12.97
CC(CN1CCOCC1)N(Cc1ccccc1)Cc1ccncc1 (stereo not given),-11.35
COCCCN(C)Cc1nc2c(cnn2C)c(=O)[nH]1,-14.09
Cc1cc(C)nc(NCc2cc3n(n2)CCCN(C(=O)C2CCC2)C3)n1,-25.32
CCOCC1CN(C(=O)c2ccnnc2)Cc2cnn(CC)c21.O=C(O)C(F)(F)F (stereo not given),9.386
CCOCC1CN(Cc2ccc3c(c2)OCO3)Cc2ncn(C)c21 (stereo not given),0.447
C1CCC(c2nnc3sc(C4CCCO4)nn23)C1 (stereo not given),0.9293
[H][C@@]12CCCN1C[C@H](CCSC)N(Cc1coc3ccc(C)cc3c1=O)C2,-15.16
OC1CCN(CCCNc2nccc(C3CCCC3)n2)CC1,25.55
CCc1cn[nH]c1C1CCCN(C(=O)c2cc(C(C)C)on2)C1 (stereo not given),-208.8
COCc1c(C(=O)N2CCCC(C(=O)c3nccn3C)C2)noc1C (stereo not given),17.04
Cc1cc2nc(SCC(=O)N3CCOCC3)n(C(C)C)c(=O)c2[nH]1,12.91 & 14.54
O=C(CCn1ccc2ccc(F)cc21)/N=c1\[nH]nc(C2CCCO2)s1 (stereo not given),-3.716
O=C(NC1(C(=O)NCC2CC2)CCCC1)C1Cc2cc(F)ccc2O1 (stereo not given),4.314
N#Cc1cn(C2CC2)c(=O)n(Cc2ncc(-c3cccs3)o2)c1=O,-33.84
COCCNC(=O)CCn1ncc2c(Cl)cccc21,-81.24
Cc1ccccc1C1CCCN(C(=O)c2c[nH]c(=O)c(Cl)c2)C1 (stereo not given),18.14
CN(C(=O)[C@H]1CSCN1C(=O)OC(C)(C)C)C1CC1,-20.58
COC(=O)CNC(=O)c1sccc1N(C)S(=O)(=O)c1ccc(Cl)cc1,-14.87
O=C(c1cc[nH]n1)N1CCC(Nc2cccnn2)CC1,10.71
CC(C)n1c(=O)c2ccccc2n(CCN2CCCCC2)c1=O,52.87
CCCN(C(=O)c1ccncc1)c1nc2c(s1)CCc1c-2cnn1C,-57.17
Cc1ccc2c(c1)C(NC1CCN(C)CC1)CCCO2 (stereo not given),-11.22
CC(C)C(=O)N1CCCC(c2cc(C(F)F)n3ncnc3n2)C1.Cl (stereo not given),-5.503
CC(C)(C)c1cc(C(=O)N2CCC(c3cnccn3)CC2)[nH]n1,-6.508
CO[C@H]1CNC[C@@H]1NC(=O)CCc1nc(-c2ccccc2)no1,-3.251
Cc1ccccc1SCC(=O)NS(=O)(=O)c1ccc2c(c1)OCCO2,21
Cc1ccccc1CC(=O)N(C)CC1(O)CCCN(c2ccccn2)C1 (stereo not given),15.38
Cc1cnn(CC2CCCN2C(=O)c2csc(-c3nnc[nH]3)n2)c1 (stereo not given),21.72
Cc1nccn1CC1CCCN1S(=O)(=O)Cc1ccc(F)cc1 (stereo not given),22.13
CCc1noc(CN(CC)C(=O)C2CC(=O)N(Cc3ccncc3)C2)n1 (stereo not given),-20.96
CN(C)c1ncccc1CNC(=O)N1CCN(C)c2ccccc2C1,21.14
[H][C@@]12CS(=O)(=O)C[C@]1([H])N(C(=O)c1cc(C(F)(F)F)n[nH]1)CCN2CC,17.72
Cc1nc(CN(C)C2CCN(CCn3cc(C#N)cn3)C2)no1 (stereo not given),-7.93
CS(=O)(=O)N1CCC2(CCN(C(=O)c3cccnc3)CC2)C1.O=C(O)C(F)(F)F,23.2
Cc1sc2ncnc(N3CCCC3Cn3cccn3)c2c1C (stereo not given),21.38
O=C(O)C(F)(F)F.[H][C@]12CCN(CCOC)[C@@]1([H])CCC(COCC(=O)N1CCCC1)O2 (stereo not given in full),27.98
O=C(O)C(F)(F)F.O=C(O)c1c(-c2cccnc2)ncc2c1CCN(CC1CCOC1)C2 (stereo not given),6.972
COCCN1CC[C@]2(CN(Cc3ccccn3)C[C@H]2C)C1=O.O=C(O)C(F)(F)F.O=C(O)C(F)(F)F,0.3912
CCC1=NOC(CNCc2cnc(-c3ccccc3C)s2)C1 (stereo not given),23.69
Cc1cc(CNC(=O)c2ccc(C(C)N3CCCCC3)o2)[nH]n1 (stereo not given),-29.88
CNC(=O)c1ccc2c(c1O)OC(C)(C)C2,19.78
COCCC1COC2(CCN(C(=O)c3cccnc3)CC2)C1.O=C(O)C(F)(F)F (stereo not given),15.74
CN(C)c1ccc(C(=O)NCCCc2ccccn2)cn1,-2.881
Cc1ccc(N2CCC(c3[nH]ncc3Cc3ccccc3)CC2)nn1,6.331
O=C(c1cnc(-c2noc3cc(N4CCCC4)ccc23)s1)N1CCCC1,27
COC[C@H]1CCC[C@]12CN(S(=O)(=O)c1cccs1)CCO2,7.49
O=C(O)CC(O)(CC(=O)O)C(=O)O.OC1CCCN(Cc2ccnc(-c3cccnc3)n2)C1 (stereo not given),8.566
Cc1ccc(OC2(C(=O)O)CCN(C(=O)c3nc(C)oc3C)CC2)cn1,25.86

Some entries from above, unchanged:

With COCCCNC(=O)CCn1ncc2c(Cl)cccc21 the screen gave 48.8%.
With CCCN(C(=O)c1ccncc1)c1nc2c(s1)CCc1c-2cnn1C the screen gave -57.17%.
With Cc1cc(C)nc(NCc2cc3n(n2)CCCN(C(=O)C2CCC2)C3)n1 the screen gave -25.32%.
With N#Cc1cn(C2CC2)c(=O)n(Cc2ncc(-c3cccs3)o2)c1=O the screen gave -33.84%.
With OC1CCN(CCCNc2nccc(C3CCCC3)n2)CC1 the screen gave 25.55%.
With CC(C)(C)c1cc(C(=O)N2CCC(c3cnccn3)CC2)[nH]n1 the screen gave -6.508%.
With COCCc1noc(CNC2CCc3nc(C(C)C)nn3C2)n1 (stereo not given) the screen gave -7.136%.